These are yes or no findings as the source states them, for the method shown. In cells and extracts the contact can be indirect. Some results given as binding are weak or reduced against the parent protein; the word gives no strength.
Target: Nucleolin (endogenous, MDPC-23 cells) (mouse) (UniProt P09405)
Test: co-immunoprecipitation from MDPC-23 cell lysates, western blot with anti-Nucleolin; immunofluorescence co-localization

Protein sequences, listed by entry. Tags and fused reporters are not part of them. Residues count along the entry.
UniProt P09405, residues 2-707: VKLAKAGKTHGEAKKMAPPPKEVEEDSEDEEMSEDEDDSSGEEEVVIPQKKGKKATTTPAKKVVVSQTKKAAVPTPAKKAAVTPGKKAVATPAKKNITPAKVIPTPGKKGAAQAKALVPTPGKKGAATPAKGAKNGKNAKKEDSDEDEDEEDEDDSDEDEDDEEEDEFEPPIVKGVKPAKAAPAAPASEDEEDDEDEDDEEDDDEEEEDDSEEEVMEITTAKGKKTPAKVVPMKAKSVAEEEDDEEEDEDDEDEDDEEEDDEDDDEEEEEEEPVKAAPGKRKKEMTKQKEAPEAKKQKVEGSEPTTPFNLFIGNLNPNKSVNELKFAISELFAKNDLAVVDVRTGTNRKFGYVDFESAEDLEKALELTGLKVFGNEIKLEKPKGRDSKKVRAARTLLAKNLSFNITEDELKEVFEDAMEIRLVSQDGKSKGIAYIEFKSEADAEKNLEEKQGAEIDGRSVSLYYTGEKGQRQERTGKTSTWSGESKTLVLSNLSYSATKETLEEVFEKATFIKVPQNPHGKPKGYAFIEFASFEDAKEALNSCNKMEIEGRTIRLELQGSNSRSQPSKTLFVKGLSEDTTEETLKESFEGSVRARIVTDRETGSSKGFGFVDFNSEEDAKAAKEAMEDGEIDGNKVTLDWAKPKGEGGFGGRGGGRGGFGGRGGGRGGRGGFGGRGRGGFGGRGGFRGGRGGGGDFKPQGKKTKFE
UniProt Q0VE82: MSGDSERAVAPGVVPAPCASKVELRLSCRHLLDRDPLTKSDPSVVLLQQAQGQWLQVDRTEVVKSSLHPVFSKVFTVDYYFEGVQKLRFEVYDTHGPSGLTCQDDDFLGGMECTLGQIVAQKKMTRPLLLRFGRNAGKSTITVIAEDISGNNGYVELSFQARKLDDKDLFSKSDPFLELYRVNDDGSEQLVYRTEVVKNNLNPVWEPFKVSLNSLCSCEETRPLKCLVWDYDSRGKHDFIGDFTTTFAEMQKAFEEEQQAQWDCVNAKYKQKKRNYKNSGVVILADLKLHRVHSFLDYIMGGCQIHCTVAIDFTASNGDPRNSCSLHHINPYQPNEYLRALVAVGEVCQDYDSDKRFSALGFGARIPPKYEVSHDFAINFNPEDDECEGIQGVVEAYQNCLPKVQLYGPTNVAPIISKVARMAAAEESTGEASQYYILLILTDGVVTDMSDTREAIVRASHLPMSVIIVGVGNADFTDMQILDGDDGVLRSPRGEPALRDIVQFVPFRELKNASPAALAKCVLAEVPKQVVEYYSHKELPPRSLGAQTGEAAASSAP

Question: Which binding does the source give for “Cpne7 (endogenous, mouse cells) (from UniProt Q0VE82 1-557)” here?
Answer: binds
